Measurements published in US20220276234A1, “POINT-OF-CARE IMMUNOASSAY FOR QUANTITATIVE SMALL ANALYTE DETECTION” (priority 2011, published 2022).
Construct, isoform or probe ends are uncertain for at least one entry. For some of these results: Weaker means in comparison with the reference protein, sequence or condition of that experiment.

Tests used:
[1] = tested on: THC.5B7 (B7) anti-THC antibody in complex with 11-hydroxy-THC (HTHC); experiment: ELONA; details: purified recombinant protein, protein details: Bioventix, single-stranded DNA
[2] = tested on: THC.5B7 (B7) anti-THC antibody in complex with 11-hydroxy-THC (HTHC); experiment: binding assay; details: purified recombinant protein, protein details: Bioventix, immunocomplex with HTHC, single-stranded DNA
[3] = tested on: THC.5B7 (B7) anti-THC antibody in complex with THC; experiment: binding assay; details: minimal binding to B7-THC complex by qPCR; purified recombinant protein; protein details: Bioventix, immunocomplex with THC; single-stranded DNA
[4] = tested on: THC.5B7 (B7) anti-THC antibody, no analyte; experiment: binding assay; details: minimal binding by qPCR; residual background binding to antibody alone; purified recombinant protein; protein details: Bioventix; single-stranded DNA
[5] = tested on: THC2.B9 (B9) anti-THC antibody (with or without HTHC); experiment: binding assay; details: aptamer stated to differentiate B7 from the similar antibody bound to HTHC; purified recombinant protein; protein details: Bioventix; single-stranded DNA
[6] = group statement: nearly all aptamers detect immunocomplex at ug/mL HTHC, label: 5' biotin, variant of B7C4 (B7HC4)

Sequence: CCTGTCAGTTGCTTACCGGCCACGAGTACGAGACTGCAGGATTCTTCTACACTGCCCCCCATGTAGTGTCCTTGCTCGT [732]
- binding result [1, 6]: binds

Sequence: CCTGTCAGTTGCTTACCGGCCCAGGTGTAGTAACTGCAGGGATTCTTAACGTAGCTACCGGGTGTAGTGTCCTTGCTCGT [154]
- binding result ([1]; group statement: nearly all aptamers detect immunocomplex at ug/mL HTHC, label: 5' biotin): binds

Sequence: CCTGTCAGTTGCTTACCGGCCCAGGTGTAGTAACTGCAGGGATTCTTAACGTAGCTACCGGGTGTAGTGTCCTTGCTCGT [B7C1 (B7HC1)]
- binding result ([2]; capillary electrophoresis peak shift, not well separated from bulk DNA): binds

Sequence: CCTGTCAGTTGCTTACCGGGCACGAGTACGAGACTGCAGGATTCTTCTACACTGCACCCCATGTAGTGTCCTTGCTC [493]
- binding result ([1]; better sensitivity in simultaneous than separate incubation, immunocomplex with HTHC, label: 5' …, variant of B7C4 (B7HC4)): binds

Sequence: CCTGTCAGTTGCTTACCGGGCACGAGTACGAGACTGCAGGATTCTTCTACACTGCCCCACATGTAGTGTCCTTGCTCGT [550]
- binding result [1, 6]: binds

Sequence: CCTGTCAGTTGCTTACCGGGCACGAGTACGAGACTGCAGGATTCTTCTACACTGCCCCCCATGTAGTGTCCTTGCTCGT [368 (B7C4)]
- binding result [1, 6]: binds

Sequence: CCTGTCAGTTGCTTACCGGGCACGAGTACGAGACTGCAGGATTCTTCTACACTGCCCCCCATGTAGTGTCCTTGCTCGT [B7C4 (B7HC4)]
- binding result [3]: binds more weakly
- binding result [4]: binds more weakly
- binding result [5]: binds more weakly
- binding result ([2]; immobilised immune complex, bound aptamer quantified by qPCR): binds

Sequence: CCTGTCAGTTGCTTACCGGGCACGAGTACGAGACTGCAGGATTCTTCTACACTGCCCCCCATGTAGTGTCCTTGCTCGTGTAGTGTCCTTGCTCGT [333]
- binding result [1, 6]: binds

Sequence: CCTGTCAGTTGCTTACCGGGCACGAGTACGAGACTGCAGGATTCTTCTACACTGCGCCCCATGTAGTGTCCTTGCTCGT [444]
- binding result ([1]; high sensitivity in separate incubation, reduced in simultaneous, immunocomplex with HTHC, label: 5' biotin, variant of B7C4 (B7HC4)): binds

Sequence: CCTGTCAGTTGCTTACCGGGCACGAGTACGAGACTGCAGGATTCTTCTACACTGCTCCCCATGTAGTGTCCTTGCTCGT [368.2]
- binding result ([1]; significant binding in both separate and simultaneous incubation, immunocomplex with HTHC, label: 5' biotin, variant of B7C4 (B7HC4)): binds

Sequence: CCTGTCAGTTGCTTACCGGGCACGAGTACGAGACTGCAGGATTCTTCTACACTGGCCCCCATGTAGTGTCCTTGCTCGT [489]
- binding result [1, 6]: binds

Sequence: CCTGTCAGTTGCTTACCGGGCACGAGTACGAGACTGCAGGATTCTTTTACACTGCCCCCCATGTAGTGTCCTTGCTCGT [568]
- binding result [1, 6]: binds

Sequence: CCTGTCAGTTGCTTACCGGGCACGAGTACTAGACTGCAGGATTCTTCTACACTGCCCCCCATGTAGTGTCCTTGCTCGT [815]
- binding result ([1]; high binding in separate incubation, lost in simultaneous, immunocomplex with HTHC, label: 5' biotin, variant of B7C4 (B7HC4)): binds
